# Values from PubChem BioAssay AID1508588 (Peter MacCallum Cancer Centre, 2020).
# Test: 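Genome-wide search for knock-downs that heighten vemurafenib action in melanoma cells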 (primary screen)
# System: human WM266.4 melanoma cells (BRAF V600 mutant)
# Reagents: siRNA pool against human genes, 40 nM
# Time to read-out: 96 h from transfection to read-out
# Challenge: vemurafenib 300 nM (about IC25), added 48 h after transfection, for 48 h; comparison arm got DMSO vehicle only
# Measurement: 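Ratios to non-targeting siRNA for cell gain, counted as DAPI nuclei after minus before drug and averaged over two replicates, and for absorbance-read medium lactate per cell; both binned into fold-change classes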
# Reading the numbers: cell gain with vemurafenib: higher = more cell gain than with non-targeting siRNA; lactate per cell with vemurafenib: higher = more lactate made per cell
# Active means: 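a knock-down counts as enhancing when its fold-change classes with vehicle and with vemurafenib, taken together, show a stronger drug effect on cell gain or lactate per cell; exact class pairs not stated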
# Calls: active = enhances vemurafenib effect; inactive = no enhancement seen
# Here is a random part of about 18,000 deposited reagents. Of all reagents, 790 (4.4%) were called active. 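Calls rest on a combination of fold-change classes in drug and vehicle arms, not all shown here.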 Some reagents were tested in more than one well and are listed for each.
Gene,cell gain with vemurafenib,lactate per cell with vemurafenib,Call
POLD3,0.34,0.64,inactive
SASH1,0.28,0.85,inactive
SPRYD4,0.55,0.99,inactive
ARHGEF11,0.73,0.16,inactive
C4orf33,0.31,0.12,active
FBXW11,0.68,0.51,inactive
C2orf66,0.01,1.04,inactive
KLRF1,0.53,1.07,inactive
HDHD3,0.94,0.26,inactive
BTN1A1,0.59,1.14,inactive
AP1M2,0.89,0.32,inactive
MLKL,0.38,0.8,inactive
WT1-AS,0.5,1.25,inactive
AFG2B,0.86,1.27,inactive
CATSPERT,0.29,2.34,inactive
PRKG1,0.62,1.18,inactive
MAN1A2,1.01,0.44,inactive
KRTAP27-1,0.4,1.52,inactive
NRROS,0.63,1.97,inactive
GP2,0.84,1.12,inactive
C2orf68,0.47,1.43,inactive
PPFIA3,0.53,0.78,inactive
TYSND1,0.53,1.46,inactive
PACC1,0.57,0.78,inactive
FBXO42,0.29,1.62,inactive
GPKOW,0.72,0.73,inactive
MLLT6,1.13,0.52,inactive
SCN2B,0.46,1.25,inactive
R3HCC1L,1,0.66,inactive
EFNA3,0.29,0.87,inactive
TRMT13,0.65,0.62,inactive
G0S2,0.68,0.69,inactive
EVC,1.03,0.79,inactive
OR4D11,0.92,0.64,inactive
KIF18B,0.92,0.5,inactive
MAPK11,0.47,0.27,inactive
KCNT2,0.57,0.91,inactive
MORN1,0.37,1.83,inactive
SLC10A2,0.62,0.79,inactive
WDR7,0.93,0.93,inactive
OR5B17,0.79,0.67,inactive
FAM219B,0.53,0.96,inactive
MZT2B,0.3,2.24,inactive
ARID5A,0,0,inactive
FBXL4,0.83,0.77,inactive
ECM2,0.83,0.6,inactive
CRX,0.21,1.75,inactive
DAZL,0.52,0.99,inactive
CFAP141,0.57,0.54,inactive
PDXP,0.6,2.08,inactive
MRPS10,0.49,1.1,inactive
OTUD7A,0.14,1.11,inactive
FSTL4,0.62,0.9,inactive
AEN,0.54,1.15,inactive
KRTAP19-2,0.88,1.3,inactive
PTPN23,0.68,1.52,inactive
CCL26,0.18,2.71,inactive
AARD,0.96,0.42,inactive
TBC1D29P,0.47,1.17,inactive
MPO,0.68,0.7,inactive
H2BC1,0.77,0.83,inactive
TMPRSS11D,-0.05,1.63,inactive
ENO3,0.67,0.76,inactive
RTL8B,0.47,1.64,inactive
HSD11B1,1.1,0.57,inactive
KLHDC8B,0.2,1.1,inactive
TKFC,0.72,1.14,inactive
KCTD7,0.84,0.5,inactive
ICAM5,0.03,1.18,inactive
SLC1A1,0.66,1,inactive
NUDT9,0.65,0.44,inactive
NUDT9,0.62,0.79,inactive
DCXR,0.89,0.8,inactive
PACSIN1,0.67,0.42,active
MPP2,0.28,0.79,inactive
FGFBP1,0.26,2.17,inactive
SCLY,0.76,1.9,inactive
PIGR,0.72,1.06,inactive
CDKN2AIP,0.68,0.72,inactive
COX7A1,0.81,0.85,inactive
YJU2,0.38,1.44,inactive
SPRYD7,0.52,1.38,inactive
OPN3,0.58,1.16,inactive
FERMT3,0.48,1.43,inactive
OSTN,0.41,0.68,inactive
VMA12,0.49,1.04,inactive
BCL2L15,0.69,0.19,inactive
SLC10A1,0.66,0.56,inactive
NDST1,0.61,0.28,inactive
FUT3,0.46,1.9,inactive
UTS2B,0.34,1.12,inactive
MOB3C,0.67,0.68,inactive
PEBP1,0.83,0.88,inactive
PHF10,1.18,0.76,inactive
ARMC5,0.45,1.67,inactive
RFX4,0.78,1.23,inactive
BRINP2,0.12,1.4,inactive
ATP6V0A1,0.77,0.68,inactive
HSP90AB1,0.71,1.31,inactive
VPS33A,0.07,1.83,inactive
RCN2,0.99,0.96,inactive
VHL,0.78,1.27,inactive
FAABTP,0.55,0.5,inactive
SOX18,0.53,1.03,inactive
EMP1,0.7,1.02,inactive
SLC36A2,0.96,0.5,inactive
SLC24A1,0.53,0.94,inactive

Part of the list above, showing only “lactate per cell with vemurafenib”.
MLKL: 0.8
WT1-AS: 1.25
AFG2B: 1.27
CATSPERT: 2.34
PRKG1: 1.18
MAN1A2: 0.44
KRTAP27-1: 1.52
NRROS: 1.97
GP2: 1.12
C2orf68: 1.43
PPFIA3: 0.78
